# Experimental data reported in patent US9458100B2, “Synthesis and growth regulatory activity of a prototype member of a new family of aminothiol radioprotectors” (Wisconsin Alumni Research Foundation, priority 2012, dated 2016).
# Assay: Smell score comparison with a 2-mercaptoethanol dilution series
# Conditions: solution at approximate single maximum human dose; one score per subject
smiles,measurement,value
"CNCC(CS)CNC [PrC-210, 3-(methyl-amino)-2-((methylamino)methyl)propane-1-thiol]",smell score (matching 2-ME dilution),8 and 7

# “And” between values parts separate entries of the source, which are not always exact repeats. Identical values can stand only once.
